What all share (test): affinity purification with mass spectrometry
In assay [1] the target is T1, Rpc128-Flag (pol III subunit Rpc128, FLAG-tagged) (yeast) (UniProt P22276).
T1 sequence: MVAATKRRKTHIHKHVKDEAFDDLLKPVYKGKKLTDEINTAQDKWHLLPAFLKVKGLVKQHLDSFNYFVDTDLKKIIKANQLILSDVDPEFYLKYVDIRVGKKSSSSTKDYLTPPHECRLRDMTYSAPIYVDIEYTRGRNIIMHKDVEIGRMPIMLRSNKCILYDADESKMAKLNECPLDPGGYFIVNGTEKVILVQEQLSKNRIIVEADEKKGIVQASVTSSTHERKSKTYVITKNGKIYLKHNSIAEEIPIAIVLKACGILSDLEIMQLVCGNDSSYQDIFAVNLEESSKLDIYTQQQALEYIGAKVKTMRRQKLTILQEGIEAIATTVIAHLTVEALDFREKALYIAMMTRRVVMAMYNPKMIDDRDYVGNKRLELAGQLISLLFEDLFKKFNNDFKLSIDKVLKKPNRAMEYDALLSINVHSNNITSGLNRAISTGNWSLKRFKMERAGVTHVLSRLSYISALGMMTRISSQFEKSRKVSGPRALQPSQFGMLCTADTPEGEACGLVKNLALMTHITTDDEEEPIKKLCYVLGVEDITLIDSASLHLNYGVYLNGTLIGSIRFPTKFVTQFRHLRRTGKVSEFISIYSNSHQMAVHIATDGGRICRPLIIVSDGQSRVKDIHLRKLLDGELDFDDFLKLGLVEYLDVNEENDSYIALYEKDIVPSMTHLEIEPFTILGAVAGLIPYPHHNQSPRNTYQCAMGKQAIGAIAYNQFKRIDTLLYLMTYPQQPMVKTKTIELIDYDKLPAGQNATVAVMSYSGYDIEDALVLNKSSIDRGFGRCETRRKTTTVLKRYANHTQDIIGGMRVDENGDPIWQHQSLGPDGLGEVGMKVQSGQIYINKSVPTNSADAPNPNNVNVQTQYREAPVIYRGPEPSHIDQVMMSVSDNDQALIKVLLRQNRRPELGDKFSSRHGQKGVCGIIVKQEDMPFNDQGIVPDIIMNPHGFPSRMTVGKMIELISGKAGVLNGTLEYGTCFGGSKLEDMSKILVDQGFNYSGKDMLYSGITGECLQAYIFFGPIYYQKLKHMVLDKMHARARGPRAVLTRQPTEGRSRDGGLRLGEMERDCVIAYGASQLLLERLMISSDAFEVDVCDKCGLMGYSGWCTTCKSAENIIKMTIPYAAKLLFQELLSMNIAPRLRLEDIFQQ

The target in assay [2] is T1, Rpc128-Flag (pol III subunit Rpc128, FLAG-tagged) (yeast). The source holds these as a separate data set.
In assay [3] the target is T2, Brf1-FLAG (TFIIIB subunit Brf1, FLAG-tagged) (yeast) (UniProt P29056).
T2 sequence: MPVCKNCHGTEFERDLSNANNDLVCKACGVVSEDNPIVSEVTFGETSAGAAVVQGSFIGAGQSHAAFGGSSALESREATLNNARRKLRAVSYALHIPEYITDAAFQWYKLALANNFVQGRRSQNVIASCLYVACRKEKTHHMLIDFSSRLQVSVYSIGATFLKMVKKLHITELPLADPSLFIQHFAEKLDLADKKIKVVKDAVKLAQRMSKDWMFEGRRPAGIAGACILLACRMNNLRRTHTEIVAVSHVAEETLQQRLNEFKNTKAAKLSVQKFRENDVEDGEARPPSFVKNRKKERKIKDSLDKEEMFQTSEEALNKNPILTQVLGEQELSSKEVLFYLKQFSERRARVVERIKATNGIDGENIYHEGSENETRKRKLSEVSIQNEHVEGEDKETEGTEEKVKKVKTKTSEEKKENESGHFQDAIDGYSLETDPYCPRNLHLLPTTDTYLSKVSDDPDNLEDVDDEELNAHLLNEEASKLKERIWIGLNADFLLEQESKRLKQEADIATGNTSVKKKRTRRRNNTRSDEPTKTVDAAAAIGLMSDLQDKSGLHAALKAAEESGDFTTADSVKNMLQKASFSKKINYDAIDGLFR

The target of assay [4] is T3, Tfc6-FLAG (TFIIIC subunit Tfc6, FLAG-tagged) (yeast) (UniProt Q06339).
T3 sequence: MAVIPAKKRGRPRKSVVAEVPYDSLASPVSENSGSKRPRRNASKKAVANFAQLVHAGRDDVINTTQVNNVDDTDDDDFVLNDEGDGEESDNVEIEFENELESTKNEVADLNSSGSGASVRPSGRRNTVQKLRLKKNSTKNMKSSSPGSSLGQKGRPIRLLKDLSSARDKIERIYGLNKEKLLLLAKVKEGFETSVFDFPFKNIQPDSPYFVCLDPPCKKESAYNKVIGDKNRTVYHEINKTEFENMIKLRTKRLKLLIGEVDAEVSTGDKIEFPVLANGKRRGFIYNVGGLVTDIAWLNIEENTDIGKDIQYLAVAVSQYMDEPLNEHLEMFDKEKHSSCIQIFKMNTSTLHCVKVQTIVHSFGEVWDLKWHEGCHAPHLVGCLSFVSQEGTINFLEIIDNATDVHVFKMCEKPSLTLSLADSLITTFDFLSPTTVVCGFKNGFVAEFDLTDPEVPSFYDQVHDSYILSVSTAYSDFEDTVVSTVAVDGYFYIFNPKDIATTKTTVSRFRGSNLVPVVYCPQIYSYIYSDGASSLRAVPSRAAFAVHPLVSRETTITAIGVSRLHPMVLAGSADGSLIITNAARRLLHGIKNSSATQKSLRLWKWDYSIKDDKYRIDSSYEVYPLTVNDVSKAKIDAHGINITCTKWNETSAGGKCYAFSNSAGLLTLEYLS

Assay [5] addresses T2, Brf1-FLAG (TFIIIB subunit Brf1, FLAG-tagged) (yeast). This is another data set of the same source.
The target in assay [6] is T3, Tfc6-FLAG (TFIIIC subunit Tfc6, FLAG-tagged) (yeast). The source holds these as a separate data set.

Read-outs that look alike come from different tables or passages of the source. These are yes or no findings as the source states them, for the method shown. In cells and extracts the contact can be indirect. Here binding means that the protein was enriched with, or labelled near, the bait; the list need not be complete. For some of these results: A no says only that the protein was not detected with the bait. Where a sequence is shown, tags or fusion partners need not be part of it.

“Rtf1 (subunit of the Paf1 complex) (from UniProt P53064 1-558)”: the binding result in assay [1], in assay [2], in assay [3] and in assay [4] was “binds” throughout.

B1: Bud27 (protein, UniProt P43573 1-796)
chain: MDLLAASVESTLKNLQDKRNFLSEQREHYIDIRSRLVRFINDNDDGEEEGEGQGMVFGDIIISTSKIYLSLGYEYYVEKTKEEAITFVDDKLKLMEDAIEQFNLKIEEAKKTLDNLNHMEDGNGIEEDEANNDEDFLPSMEIREELDDEGNVISSSVTPTTKQPSQSNSKKEQTPAVGPKEKGLAKEKKSKSFEENLKGKLLKRNDEVKKKVQPSKVDTENVYTFADLVQQMDQQDELEDGYIETDEINYDYDAFENSNFKVNDNYEEDDEDEDEEEYLNHSIIPGFEAQSSFLQQIQRLRAQKQSQDHEREEGDVNKSLKPILKKSSFAENSDKKQKKKQVGFASSLEIHEVENLKEENKRQMQSFAVPMYETQESTGIANKMTSDEFDGDLFAKMLGVQEADEVHEKYKEELINQERLEGEASRSNRRTRVSRFRKDRASKKENTLSTFKQETTRSVENEVVEKEPVVGDIIEKEPVVGDVIEKEPVVGDVIEKEPAVTDIVEREPAVNDIVERKPVVGDIIEKEPTINDIVEKEPEINSKSEFETPFKKKKLKSLQKPRSSKSMKKKFDPKILENISDDDYDDDDDGNKKLLSNKSKNNTDEQDKFPSKIQEVSRSMAKTGATVGSEPVRITNVDYHALGGNLDDMVKAYSLGLYDDDLEEDPGTIVEKLEDFKEYNKQVELLRDEIRDFQLENKPVTMEEEENDGNVMNDIIEHEFPESYTNDEDEVALHPGRLQEEVAIEYRRLKEATASKWQSSSPAAHTEGELEPIDKFGNPVKTSRFRSQRLHMDSKP
In the case of B1, the results for the binding entry in assay [1], in assay [5] and in assay [6] were “binds”, “no binding” and “no binding”, respectively.
